Chains of the proteins cited; added tags and fusions are not shown. Lines headed by an entry give the natural chain unless they say otherwise; changes in a name come on top.
UniProt P41240: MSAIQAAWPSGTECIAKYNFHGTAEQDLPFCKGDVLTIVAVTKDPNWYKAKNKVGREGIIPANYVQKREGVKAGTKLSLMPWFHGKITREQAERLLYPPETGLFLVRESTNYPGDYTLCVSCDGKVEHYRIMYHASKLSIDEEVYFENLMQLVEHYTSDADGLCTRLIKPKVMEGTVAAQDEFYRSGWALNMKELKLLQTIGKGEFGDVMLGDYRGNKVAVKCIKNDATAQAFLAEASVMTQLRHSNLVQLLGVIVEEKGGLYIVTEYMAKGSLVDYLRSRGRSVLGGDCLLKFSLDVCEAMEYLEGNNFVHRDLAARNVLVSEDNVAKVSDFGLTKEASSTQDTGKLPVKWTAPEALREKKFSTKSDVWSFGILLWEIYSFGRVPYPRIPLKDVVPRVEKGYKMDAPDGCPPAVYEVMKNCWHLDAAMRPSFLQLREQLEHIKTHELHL

Some of the results follow. Hit calls seldom repeat between salt and free forms of one compound.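 Kinases, fused to nanoluciferase, were expressed in K562 cells; luminescence was measured every 4 h from 2 to 18 h as percent of control (DMSO = 100%, positive control = 0%). A time point is decreased if signal falls significantly (2 sigma). Hits were called by the authors by a rule that is not shown; the count of time points alone does not decide it.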
Each compound was assayed against CSK (UniProt P41240) (assay: number of time points (of 5) at which kinase-Nluc abundance scored as decreased, DMSO-normalised (count); higher = more persistent destabilization). Details: K562; 2-18 h.
For NC(=O)c1c(NC(=O)C2CC2)sc2c1CCCC2 (10 µM), the “number of time points” value was 0. For CN(C)c1ccc(/C=C2\C(=O)Nc3ccccc32)c2ccccc12 (10 µM), the “number of time points” value was 0. O=C(O)c1c[nH]c2cc(Cl)c(-c3ccc(C4(O)CCC4)cc3)cc12 (10 µM) was tested, and the “number of time points” value was 0. With CC1=C(C#N)C(c2ccc3[nH]nc(C)c3c2)C(C#N)=C(C)N1 (10 µM) the “number of time points” value was 0.

From the supplement of paper PMC12823440, “Inhibitors supercharge kinase turnover through native proteolytic circuits” (Nature, 2025)
